Results: paper PMC7449923
No constants are given. Whether binding was seen depends on the method and setting. Binding seen in cells or lysates may run through a third protein. Some binding calls cover weakened binding; strength is not graded here.

Chains of the proteins cited; added tags and fusions are not shown. Residues count along the entry.
UniProt O00206, residues 24-839: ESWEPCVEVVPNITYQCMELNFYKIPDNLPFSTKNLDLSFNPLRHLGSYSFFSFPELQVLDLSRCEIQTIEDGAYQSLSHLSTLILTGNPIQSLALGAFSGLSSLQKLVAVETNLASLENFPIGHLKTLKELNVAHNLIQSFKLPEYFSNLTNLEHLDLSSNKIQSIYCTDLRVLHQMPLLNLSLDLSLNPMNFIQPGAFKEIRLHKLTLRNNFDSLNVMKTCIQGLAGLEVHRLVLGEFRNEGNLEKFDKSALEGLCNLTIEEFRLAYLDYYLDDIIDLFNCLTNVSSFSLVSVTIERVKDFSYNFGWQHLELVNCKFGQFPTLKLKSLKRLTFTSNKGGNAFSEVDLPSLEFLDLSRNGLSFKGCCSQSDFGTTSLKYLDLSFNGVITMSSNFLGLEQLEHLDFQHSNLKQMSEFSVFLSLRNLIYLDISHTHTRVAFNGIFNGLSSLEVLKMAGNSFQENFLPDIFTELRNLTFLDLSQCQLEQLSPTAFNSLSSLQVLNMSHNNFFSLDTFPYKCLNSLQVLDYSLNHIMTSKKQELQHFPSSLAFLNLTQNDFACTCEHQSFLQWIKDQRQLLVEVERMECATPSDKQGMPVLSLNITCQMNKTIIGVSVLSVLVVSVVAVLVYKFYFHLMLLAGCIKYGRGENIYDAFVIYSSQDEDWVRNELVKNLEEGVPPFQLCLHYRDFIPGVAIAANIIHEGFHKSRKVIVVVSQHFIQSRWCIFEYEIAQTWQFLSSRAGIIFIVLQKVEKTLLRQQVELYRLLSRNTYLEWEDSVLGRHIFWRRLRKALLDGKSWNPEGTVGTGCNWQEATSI
UniProt Q14314, residues 24-439: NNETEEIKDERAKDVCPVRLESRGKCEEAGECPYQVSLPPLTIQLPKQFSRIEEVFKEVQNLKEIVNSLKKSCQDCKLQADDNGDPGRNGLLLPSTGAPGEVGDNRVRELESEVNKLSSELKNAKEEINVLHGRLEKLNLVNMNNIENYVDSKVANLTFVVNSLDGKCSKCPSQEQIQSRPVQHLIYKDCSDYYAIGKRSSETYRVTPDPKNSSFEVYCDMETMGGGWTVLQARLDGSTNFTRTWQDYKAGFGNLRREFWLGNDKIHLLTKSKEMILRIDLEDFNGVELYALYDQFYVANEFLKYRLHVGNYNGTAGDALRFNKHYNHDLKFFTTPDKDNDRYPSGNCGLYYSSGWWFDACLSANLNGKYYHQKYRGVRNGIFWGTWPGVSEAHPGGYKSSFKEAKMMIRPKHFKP

Target: Toll-like receptor 4 (human (endogenous in THP-1)) (UniProt O00206)
Test: co-IP; lysates of THP-1 cells differentiated with PMA for 24 hours and stimulated with LPS (100 ng/ml) or FFA (800 umol/L) for 24 hours; incubated with antibody against fgl2 or TLR4 at 4°C overnight, IP & CoIP kit; western blotting; rabbit IgG and mouse IgG as control antibodies

Question: With “Fibrinogen-like protein 2 (from UniProt Q14314 24-439)” as the substance, how does the binding read?
Answer: binds
